Results deposited as PubChem BioAssay AID1508588 (Peter MacCallum Cancer Centre, 2020)
Screen: 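Knock-downs boosting vemurafenib effects on melanoma cell growth or lactate release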 (primary screen). System: human WM266.4 melanoma cells (BRAF V600 mutant). Reagent: siRNA pool against human genes, 40 nM. Time to read-out: 96 h from transfection to read-out. Treatment: vemurafenib 300 nM (about IC25), added 48 h after transfection, for 48 h; comparison arm got DMSO vehicle only. Detection: 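Ratios to non-targeting siRNA for cell gain, counted as DAPI nuclei after minus before drug and averaged over two replicates, and for absorbance-read medium lactate per cell; both binned into fold-change classes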. Scale: cell gain with vemurafenib: higher = more cell gain than with non-targeting siRNA; lactate per cell with vemurafenib: higher = more lactate made per cell. Call rule: 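Enhancement is called by pairing each knock-down's vehicle-arm and drug-arm fold-change classes for viability or glycolysis; which class combinations qualify is not given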. Meaning of the calls: active = enhances vemurafenib effect; inactive = no enhancement seen.
In all, the deposit lists about 18,000 reagents; this is a random part of them. Over the whole deposit, 790 (4.4%) were called active. 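Calls rest on a combination of fold-change classes in drug and vehicle arms, not all shown here.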 Reagents against one gene are numbered here. Reagent sequences are not shown.

Against ERCC6L (ERCC excision repair 6 like DNA helicase) the deposit lists cell gain with vemurafenib 0.54; lactate per cell with vemurafenib 0.58; inactive. Depletion of SUN1 (Sad1 and UNC84 domain containing 1) gave: cell gain with vemurafenib 0.56; lactate per cell with vemurafenib 1.7; inactive. For PIP5K1C (phosphatidylinositol-4-phosphate 5-kinase type 1 gamma), the entry reads cell gain with vemurafenib 1.06; lactate per cell with vemurafenib 0.62; inactive. VWA5A (von Willebrand factor A domain containing 5A) showed cell gain with vemurafenib -0.12; lactate per cell with vemurafenib 1.9; inactive. PLEK2 (pleckstrin 2) showed cell gain with vemurafenib 0.65; lactate per cell with vemurafenib 0.26; inactive. Silencing of SLC38A2 came out at: cell gain with vemurafenib 0.56; lactate per cell with vemurafenib 0.64; inactive.

NCAM1 (neural cell adhesion molecule 1) gave cell gain with vemurafenib 0.73; lactate per cell with vemurafenib 1.3; inactive. For RCAN3 (regulator of calcineurin 3), the values are cell gain with vemurafenib 0.72; lactate per cell with vemurafenib 0.74; inactive. SPTY2D1 (SPT2 chromatin protein domain containing 1) gave cell gain with vemurafenib 0.66; lactate per cell with vemurafenib 0.52; inactive. KLK6 (kallikrein related peptidase 6) scored cell gain with vemurafenib 0.21; lactate per cell with vemurafenib 2; inactive. Depletion of PLEKHA6 (pleckstrin homology domain containing A6) came out at: cell gain with vemurafenib 0.51; lactate per cell with vemurafenib 0.67; inactive. With knock-down of CLUH (CLUH binding protein of NUMT mRNA) the results were cell gain with vemurafenib 0.58; lactate per cell with vemurafenib 0.59; inactive.

Knock-down of MED14 (mediator complex subunit 14) came out at: cell gain with vemurafenib 0.55; lactate per cell with vemurafenib 0.97; inactive. Knock-down of SLC4A5 resulted in: cell gain with vemurafenib 1.03; lactate per cell with vemurafenib 0.9; inactive. With knock-down of HCAR1 (hydroxycarboxylic acid receptor 1), the screen gave cell gain with vemurafenib 1.03; lactate per cell with vemurafenib 1.05; inactive. For LRCH4 the deposit lists cell gain with vemurafenib 0.62; lactate per cell with vemurafenib 1.68; inactive. ECD (ecdysoneless cell cycle regulator) gave cell gain with vemurafenib 1.13; lactate per cell with vemurafenib 0.88; inactive. After knock-down of BMX (BMX non-receptor tyrosine kinase), the screen gave cell gain with vemurafenib 0.74; lactate per cell with vemurafenib 0.29; inactive.

Knock-down of RXFP2 (relaxin family peptide receptor 2) gave: cell gain with vemurafenib 0.12; lactate per cell with vemurafenib 0.86; active. Knock-down of DBX2 (developing brain homeobox 2) gave: cell gain with vemurafenib 0.27; lactate per cell with vemurafenib 1.57; inactive. Knock-down of FBXW10 (F-box and WD repeat domain containing 10) gave: cell gain with vemurafenib 0.64; lactate per cell with vemurafenib 1.13; inactive. Silencing of ALG13 (ALG13 UDP-N-acetylglucosaminyltransferase subunit) #1 gave: cell gain with vemurafenib 0.48; lactate per cell with vemurafenib 1.38; inactive. ALG13 (ALG13 UDP-N-acetylglucosaminyltransferase subunit) #2 scored cell gain with vemurafenib 0.41; lactate per cell with vemurafenib 0.86; inactive. After knock-down of OR1A2 (olfactory receptor family 1 subfamily A member 2) the results were cell gain with vemurafenib 0.35; lactate per cell with vemurafenib 1.09; inactive.

With knock-down of SF3B3 (splicing factor 3b subunit 3), the record shows cell gain with vemurafenib 0; lactate per cell with vemurafenib 2.18; inactive. Silencing of UNC5C (unc-5 netrin receptor C) resulted in: cell gain with vemurafenib 0.53; lactate per cell with vemurafenib 0.93; inactive. After knock-down of FAM209A (family with sequence similarity 209 member A), the screen gave cell gain with vemurafenib 0.67; lactate per cell with vemurafenib 0.44; inactive. With knock-down of VPS25 (vacuolar protein sorting 25 homolog), the screen gave cell gain with vemurafenib 0.58; lactate per cell with vemurafenib 1.27; inactive. Against WHR1 (winged helix repair factor 1) the deposit lists cell gain with vemurafenib 0.47; lactate per cell with vemurafenib 1.16; inactive. Against MB (myoglobin), the entry reads cell gain with vemurafenib 0.54; lactate per cell with vemurafenib 0.84; inactive.

For C18orf32 (chromosome 18 open reading frame 32), the entry reads cell gain with vemurafenib 0.58; lactate per cell with vemurafenib 0.68; inactive. DHRS4L1 (dehydrogenase/reductase 4 like 1 (pseudogene)) scored cell gain with vemurafenib 0.98; lactate per cell with vemurafenib 0.94; inactive. Knock-down of PTOV1 (PTOV1 extended AT-hook containing adaptor protein) gave: cell gain with vemurafenib 0.68; lactate per cell with vemurafenib 1.18; inactive. With knock-down of MYH6 (myosin heavy chain 6), the screen gave cell gain with vemurafenib 0.5; lactate per cell with vemurafenib 0.74; inactive.

Copied from the list:
Under “Call”, PLEK2 (pleckstrin 2) has inactive
For “Call”, SUN1 (Sad1 and UNC84 domain containing 1) reads inactive

The list goes on.
Silencing of NOL11 (nucleolar protein 11) resulted in: cell gain with vemurafenib 0.19; lactate per cell with vemurafenib 1.57; inactive. Knock-down of DBF4 (DBF4-CDC7 kinase regulatory subunit) gave: cell gain with vemurafenib 0.8; lactate per cell with vemurafenib 1; inactive. Against EFCAB11 (EF-hand calcium binding domain 11), the entry reads cell gain with vemurafenib 0.52; lactate per cell with vemurafenib 1.48; inactive. For VPS72 (vacuolar protein sorting 72 homolog), the entry reads cell gain with vemurafenib 0.76; lactate per cell with vemurafenib 0.92; inactive. Against FAN1 (FANCD2 and FANCI associated nuclease 1), the values are cell gain with vemurafenib 0.48; lactate per cell with vemurafenib 0.88; inactive. HFM1 (helicase for meiosis 1) scored cell gain with vemurafenib 0.82; lactate per cell with vemurafenib 0.79; inactive.

FAM219A (family with sequence similarity 219 member A) gave cell gain with vemurafenib 0.91; lactate per cell with vemurafenib 1.05; inactive. Depletion of NAT2 (N-acetyltransferase 2) came out at: cell gain with vemurafenib 0.6; lactate per cell with vemurafenib 0.87; inactive. Depletion of PAX8 (paired box 8) resulted in: cell gain with vemurafenib 0.1; lactate per cell with vemurafenib 3.29; inactive. For LHX4 (LIM homeobox 4), the entry reads cell gain with vemurafenib 0.92; lactate per cell with vemurafenib 0.87; inactive. Depletion of MEN1 (menin 1) resulted in: cell gain with vemurafenib 0.2; lactate per cell with vemurafenib 0.73; inactive. Knock-down of TH (tyrosine hydroxylase) came out at: cell gain with vemurafenib 1.16; lactate per cell with vemurafenib 1.08; inactive.

Knock-down of PNPT1 (polyribonucleotide nucleotidyltransferase 1) gave: cell gain with vemurafenib 0.84; lactate per cell with vemurafenib 0.94; inactive. For NDUFS8 (NADH:ubiquinone oxidoreductase core subunit S8), the entry reads cell gain with vemurafenib 0.8; lactate per cell with vemurafenib 1.06; inactive. Against CLDN23 (claudin 23), the values are cell gain with vemurafenib 0.42; lactate per cell with vemurafenib 1.75; inactive. TMOD4 (tropomodulin 4) scored cell gain with vemurafenib 0.77; lactate per cell with vemurafenib 0.96; inactive. With knock-down of SPSB1 (splA/ryanodine receptor domain and SOCS box containing 1), the record shows cell gain with vemurafenib 0.85; lactate per cell with vemurafenib 0.49; inactive. KNDC1 (kinase non-catalytic C-lobe domain containing 1) gave cell gain with vemurafenib 0.98; lactate per cell with vemurafenib 1.09; inactive.
